The values below are quoted from earlier work in article PMC7947795, “Rapamycin-Loaded Lipid Nanocapsules Induce Selective Inhibition of the mTORC1-Signaling Pathway in Glioblastoma Cells” (Frontiers in Bioengineering and Biotechnology, 2021).

On the set-up of the data set: method as in Simamora et al., 2001. As to conditions: ref Simamora et al., 2001; cited from earlier work.

Take `CO[C@H]1C[C@@H]2CC[C@@H](C)[C@@](O)(O2)C(=O)C(=O)N2CCCC[C@H]2C(=O)O[C@H]([C@H](C)C[C@@H]2CC[C@@H](O)[C@H](OC)C2)CC(=O)[C@H](C)/C=C(\C)[C@@H](O)[C@@H](OC)C(=O)[C@H](C)C[C@H](C)/C=C/C=C/C=C/1C` [Rapamycin]: the solubility in water entry is recorded as “ca. 2.6 μg/mL”.
